These are yes or no findings as the source states them, for the method shown. Some binding calls cover weakened binding; strength is not graded here. Where a sequence is shown, tags or fusion partners need not be part of it.
Target: T1, his-Hth (Homothorax) (Drosophila) (UniProt O46339)
T1 sequence: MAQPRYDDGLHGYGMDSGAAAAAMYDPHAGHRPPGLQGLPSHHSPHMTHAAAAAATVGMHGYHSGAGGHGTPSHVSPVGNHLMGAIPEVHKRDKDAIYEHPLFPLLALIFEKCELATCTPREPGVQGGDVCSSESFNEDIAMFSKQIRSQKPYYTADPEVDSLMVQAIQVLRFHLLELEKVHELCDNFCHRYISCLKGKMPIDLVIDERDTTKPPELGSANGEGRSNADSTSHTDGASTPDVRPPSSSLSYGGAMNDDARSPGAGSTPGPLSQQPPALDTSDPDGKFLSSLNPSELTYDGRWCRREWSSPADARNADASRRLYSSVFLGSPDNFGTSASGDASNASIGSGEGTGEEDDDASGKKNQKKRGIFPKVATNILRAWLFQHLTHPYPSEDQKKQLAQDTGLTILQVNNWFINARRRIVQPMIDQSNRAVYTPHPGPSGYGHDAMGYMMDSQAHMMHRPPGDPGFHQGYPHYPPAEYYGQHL
Test: co-purification; heterodimers purified from BL21 cells as previously described, one subunit His-tagged; confirmed by SDS-PAGE and Coomassie blue staining

binding: binds
B1: untagged Exd (Extradenticle) (protein, UniProt P40427 1-376)
chain: MEDPNRMLAHTGGMMAPQGYGLSGQDDGQNAGSENEVRKQKDIGEILQQIMSISEQSLDEAQARKHTLNCHRMKPALFSVLCEIKEKTVLSIRNTQEEEPPDPQLMRLDNMLIAEGVAGPEKGGGGAAAASAAAASQGGSLSIDGADNAIEHSDYRAKLAQIRQIYHQELEKYEQACNEFTTHVMNLLREQSRTRPITPKEIERMVQIIHKKFSSIQMQLKQSTCEAVMILRSRFLDARRKRRNFSKQASEILNEYFYSHLSNPYPSEEAKEELARKCGITVSQVSNWFGNKRIRYKKNIGKAQEEANLYAAKKAAGASPYSMAGPPSGTTTPMMSPAPPQDSMGYPMGSGGYDQQQPYDNSMGGYDPNLHQDLSP

Source: article PMC4825978
